Test results taken from the supplement of paper PMC12889115.
The list shows a part of the results. Values are raw readings; no control value is given beside them.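 First-pass screen: polymyxin B was added at a level that permeabilizes the Salmonella outer membrane while sparing the inner membrane. DMSO wells, with and without polymyxin B, defined maximum growth. Because plates differed from one another, each plate's data were ranked separately and the compounds with the lowest OD600 were carried forward as hits.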

Tested on: Salmonella enterica serovar Typhimurium SL1344
Experiment: bacterial growth OD600 after 18 h with compound and polymyxin B; higher = more bacterial growth (less inhibition)
Settings: 50 µM, Mueller-Hinton broth

## COc1ccc(Cl)cc1C(=O)C1CCCN(Cc2cccn2-c2nccs2)C1 (stereo unspecified)
Polymyxin B 1 µg/mL
  bacterial growth OD600: 1.01

## C[C@@H]1CN(Cc2nnnn2CC(=O)NC2CCN(Cc3ccccc3)CC2)C[C@H](C)O1
Polymyxin B 0.75 µg/mL
  bacterial growth OD600: 0.789

## CSCCC(=O)N1CCC(C2CCN(Cc3cccnc3)CC2)C1 (stereo unspecified)
Polymyxin B 0.75 µg/mL
  bacterial growth OD600: 0.868

## O=S(=O)(c1ccccc1)N1CCc2[nH]nc(-c3ccccc3F)c2C1
Polymyxin B 0.75 µg/mL
  bacterial growth OD600: 0.514

## COc1ccc(-c2n[nH]cc2CN2CCC(n3nccc3NC(=O)C(C)(C)C)CC2)cc1
Polymyxin B 1 µg/mL
  bacterial growth OD600: 0.915

## O=C(c1ccsc1)N1CCc2[nH]nc(-c3ccc(F)c(F)c3)c2C1
Polymyxin B 0.75 µg/mL
  bacterial growth OD600: 0.006

## COC(=O)[C@@H](NC1CCN(c2ccc(NS(=O)(=O)N(C)C)cc2)CC1)c1ccccc1
Polymyxin B 0.75 µg/mL
  bacterial growth OD600: 0.852

## CC(C)N1CCC(CNC(=O)c2coc(COc3cccc(F)c3F)n2)CC1
Polymyxin B 1 µg/mL
  bacterial growth OD600: 0.969

## CCN(CC)C(=O)C1CCCN(Cc2ccc3c(c2)CN(Cc2cc(OC)cc(OC)c2)CCO3)C1 (stereo unspecified)
Polymyxin B 0.75 µg/mL
  bacterial growth OD600: 0.848

## COCc1ccc(C(=O)NCc2nc(NCCCc3ccccc3)c3ccccc3n2)o1
Polymyxin B 0.75 µg/mL
  bacterial growth OD600: 0.719

## CCCS(=O)(=O)NCc1cccnc1N1CCN(c2ccccc2C)CC1
Polymyxin B 0.75 µg/mL
  bacterial growth OD600: 0.639

## O=C(NCC1CCCCC1)C1CCC(=O)N(CCc2cccc(F)c2)C1 (stereo unspecified)
Polymyxin B 1 µg/mL
  bacterial growth OD600: 0.878

## O=C(CCC1CCCN(Cc2cnc(N3CCOCC3)s2)C1)Nc1ccccc1F (stereo unspecified)
Polymyxin B 1 µg/mL
  bacterial growth OD600: 0.859

## Cc1ccc(SC2CCN(C(=O)C3CCC(=O)N(C4CC4)C3)CC2)cc1 (stereo unspecified)
Polymyxin B 1 µg/mL
  bacterial growth OD600: 0.927

## C#Cc1ccc(CN2CCC(Oc3cc(OC)ccc3C(=O)NC3CC3)CC2)cc1
Polymyxin B 1 µg/mL
  bacterial growth OD600: 1.17

## CC(C)c1nccn1Cc1cc(C(=O)N2CCCN(Cc3ccccn3)CC2)n[nH]1
Polymyxin B 1 µg/mL
  bacterial growth OD600: 0.964

## Cc1cccc(-c2cccc(NC(=O)C3CCCN(C(=O)c4ncoc4C)C3)c2)c1 (stereo unspecified)
Polymyxin B 1 µg/mL
  bacterial growth OD600: 0.486

## O=C(c1coc(COc2ccccc2)n1)N1CCCCCC1
Polymyxin B 1 µg/mL
  bacterial growth OD600: 0.856

## CN1CCCN(c2ccc(-c3nc(COc4ccccc4)no3)cn2)CC1
Polymyxin B 1 µg/mL
  bacterial growth OD600: 0.759

## CCC(O)C1CCN(c2nc3nonc3nc2NC2CCCC2)CC1 (stereo unspecified)
Polymyxin B 1 µg/mL
  bacterial growth OD600: 0.886

## COCCN(Cc1ncc[nH]1)CC1CCCN(C2Cc3ccccc3C2)C1 (stereo unspecified)
Polymyxin B 0.75 µg/mL
  bacterial growth OD600: 0.868

## CC(C)(C)CN1CC(NC2Cc3ccccc3C2)CC1=O (stereo unspecified)
Polymyxin B 1 µg/mL
  bacterial growth OD600: 0.747

## COc1cc(NC(=O)CCC2CCCN(C(=O)c3ocnc3C)C2)cc(OC)c1 (stereo unspecified)
Polymyxin B 1 µg/mL
  bacterial growth OD600: 1.05

## COc1ccc(-c2nc(CN3CCN(c4ccc(C)cc4C)CC3)c(C)o2)cc1
Polymyxin B 1 µg/mL
  bacterial growth OD600: 0.571

## COc1ccc(-c2ccccc2NC(=O)C2CCCN2C(=O)NC(C)C)cc1 (stereo unspecified)
Polymyxin B 1 µg/mL
  bacterial growth OD600: 0.315

## CSc1ncc(CN2CCC(C3CCN(Cc4cccnc4)CC3)C2)cn1 (stereo unspecified)
Polymyxin B 0.75 µg/mL
  bacterial growth OD600: 0.646

## COc1ccc(Cc2noc(CN(C)Cc3cccc(-n4cccn4)c3)n2)cc1OC
Polymyxin B 1 µg/mL
  bacterial growth OD600: 0.958

## Cc1nonc1C(=O)N(CC1CCN(Cc2ccccc2F)CC1)CC1CCCO1 (stereo unspecified)
Polymyxin B 1 µg/mL
  bacterial growth OD600: 0.989

## COCC(=O)Nc1cnn(-c2cccc(C(=O)N3CCN(c4cccc(C(F)(F)F)c4)CC3)c2)c1
Polymyxin B 0.75 µg/mL
  bacterial growth OD600: 0.008

## O=C(CC1C(=O)NCCN1Cc1cccc(C(F)(F)F)c1)NCCOc1cccnc1 (stereo unspecified)
Polymyxin B 1 µg/mL
  bacterial growth OD600: 0.797

## CN1CCC(N(C)C(=O)CC(c2cccc(O)c2)c2ccccc2Cl)CC1 (stereo unspecified)
Polymyxin B 1 µg/mL
  bacterial growth OD600: 0.894
